Measured values from article PMC5109294, “NANOG reprograms prostate cancer cells to castration resistance via dynamically repressing and engaging the AR/FOXA1 signaling axis”.
Results are given in words; binding and its absence hold for the method and conditions named. In cells and extracts the contact can be indirect. Some entries that bind do so weakly or less than the wild type.

Protein sequences, listed by entry. Tags and fused reporters are not part of them.
UniProt Q9H9S0: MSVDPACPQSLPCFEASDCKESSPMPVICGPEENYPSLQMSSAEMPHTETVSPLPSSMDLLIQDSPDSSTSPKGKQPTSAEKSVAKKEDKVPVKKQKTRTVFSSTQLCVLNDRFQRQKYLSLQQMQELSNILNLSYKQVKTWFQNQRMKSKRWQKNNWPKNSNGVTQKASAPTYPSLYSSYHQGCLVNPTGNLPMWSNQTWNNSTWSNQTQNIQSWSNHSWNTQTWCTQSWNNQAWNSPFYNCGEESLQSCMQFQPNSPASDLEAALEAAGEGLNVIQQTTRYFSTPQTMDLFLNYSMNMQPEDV

Target: T1, Forkhead box A1 (human (endogenous in LNCaP)) (UniProt P55317)
T1 sequence: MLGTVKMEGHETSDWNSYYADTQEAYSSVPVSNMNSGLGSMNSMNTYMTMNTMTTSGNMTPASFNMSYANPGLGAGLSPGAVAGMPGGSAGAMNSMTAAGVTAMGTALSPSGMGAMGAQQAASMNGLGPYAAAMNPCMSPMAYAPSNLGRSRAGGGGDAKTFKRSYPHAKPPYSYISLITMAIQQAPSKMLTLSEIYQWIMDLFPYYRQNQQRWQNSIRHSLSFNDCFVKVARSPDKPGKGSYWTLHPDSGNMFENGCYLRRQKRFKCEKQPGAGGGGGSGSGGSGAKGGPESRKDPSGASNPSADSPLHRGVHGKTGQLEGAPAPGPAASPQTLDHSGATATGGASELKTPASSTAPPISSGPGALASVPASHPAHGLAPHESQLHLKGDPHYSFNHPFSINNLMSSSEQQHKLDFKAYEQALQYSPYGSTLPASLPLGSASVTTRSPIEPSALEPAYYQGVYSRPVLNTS
Assay: co-IP; whole-cell lysate of LNCaP-pLVX, LNCaP-NANOG1 or LNCaP-NP8 cells; IP with anti-FOXA1 goat pAb, western blot for FOXA1, AR and NANOG

For NANOG1 (from UniProt Q9H9S0 1-305), the binding was “binds”.
